Experimental data from PubChem BioAssay AID1259415 (National Center for Advancing Translational Sciences (NCATS), 2018).
The campaign covered roughly 410,000 compounds. About 18,000 (4.4%) were called active. Inconclusive means that the source gave no clear call. Such entries were picked first, then a sample of the others. Cut-off read from the data, not from the text of the source: active = activity change below about -60%; inconclusive = no clear call, values can overlap the other calls; inactive = above about -39%.
% is set by controls: 0 for no effect and ±100 for the full control effect.

Experiment: qHTS Assay for inhibitors of the human cytomegalovirus (HCMV)
Settings: HFF cells, HCMV-luciferase reporter, 72 h; at 57.5 µM; stronger effect = lower value
How it was run: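 Cell-based, HFFs, 1000 cells/well, 16 h 37C; cpds in DMSO + HCMV-luc, MOI 1 PFU/cell; 72 h 37C; OneGlo luminescence after 5 min RT; norm. to buffer vs Salinomycin 10uM.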
With N#CC12CCCCC1CC1CCCCC1(C#N)N2Cc1cccnc1 (centres undefined) the activity change, negative = inhibition was inconclusive: -56.5%.
In the case of COc1cccc(Nc2cc(C)nc3ccccc23)c1, the activity change, negative = inhibition is reported as inconclusive: -40.8%.
With COC(=O)C1=C(C)NC(=O)/C1=C/c1ccc(CNS(=O)(=O)c2ccc(C)cc2)o1 the activity change, negative = inhibition was inconclusive: -46%.
With CN1C(=O)C(=Cc2ccccc2OCc2ccc(C(=O)O)cc2)C(=O)N(C)C1=O the activity change, negative = inhibition was inconclusive: -52.1%.
For O=C(C1=C[C@H](c2csc3ccccc23)C[C@H](OCCCCO)O1)N1CCN(Cc2ccc3c(c2)OCO3)CC1, the activity change, negative = inhibition was inactive: -13.9%.
For Cc1ccc(C)c(NC(=O)CCOc2ccccc2)c1, the activity change, negative = inhibition was inconclusive: -51%.
With COCCCn1c(SCC(=O)N(C)C)nnc1-c1ccccc1 the activity change, negative = inhibition was inactive: 14.3%.
For Cc1ccc2nsnc2c1NC(=O)c1ccc(-c2cc(Cl)ccc2Cl)o1, the activity change, negative = inhibition was inconclusive: -57.9%.
In the case of COc1cc(CNS(=O)(=O)c2ccc3c(c2)CC(C)N3C(C)=O)cc(OC)c1OC (centres undefined), the activity change, negative = inhibition is reported as inactive: -26.6%.
With Cc1cc(C)cc(N2CCn3c2nc2c3c(=O)n(C/C=C/c3ccccc3)c(=O)n2C)c1 the activity change, negative = inhibition was inconclusive: -47.3%.
In the case of CCCN1CCC(=O)N(CCN=[N+]=[N-])CC1, the activity change, negative = inhibition is reported as inactive: 114%.
In the case of O=C(CN1CCSC1=O)N1CCN(S(=O)(=O)c2ccc(Cl)cc2)CC1, the activity change, negative = inhibition is reported as active: -60.4%.
For COc1cc(CCC(=O)Nc2cnc3ccccc3c2)cc(OC)c1OC, the activity change, negative = inhibition was inactive: -14.6%.
For Cc1ccc(Cl)cc1N1CCN(C(=O)Cn2ncn3cccc3c2=O)CC1, the activity change, negative = inhibition was active: -75.8%.
With CCN1CCN(c2ccc(NC(=O)CCc3c(C)nc4c(-c5ccc(F)cc5)c(C)nn4c3C)cc2)CC1 the activity change, negative = inhibition was active: -60.2%.
In the case of CN(CCOc1ccc(Cl)cc1)C(=O)C1CCN(C(=O)c2ccc(Cl)cc2)CC1, the activity change, negative = inhibition is reported as inconclusive: -48.5%.
In the case of CCc1nc(SCC(=O)OC)c2c3c(sc2n1)COC(C)(C)C3, the activity change, negative = inhibition is reported as inconclusive: -42.9%.
In the case of Cc1cc(C)c(S(=O)(=O)N2CCCOC2CNC(=O)C(=O)NCCc2c[nH]c3ccccc23)c(C)c1 (centres undefined), the activity change, negative = inhibition is reported as active: -81.9%.
In the case of CC(C)NC(=O)c1ccc2c(c1)N(Cc1cccc(Cl)c1)C(=O)c1ccccc1S2=O (centres undefined), the activity change, negative = inhibition is reported as inconclusive: -49.5%.
For COc1ccc(NC(=O)CN2CCN(Cc3ccccc3Cl)S2(=O)=O)cc1Cl, the activity change, negative = inhibition was inconclusive: -49.4%.
In the case of COc1ccc(S(=O)(=O)N2CCN(Cc3ccccc3)CC2)c(C)c1, the activity change, negative = inhibition is reported as inactive: -21%.
With CC(C)C(=O)Nc1cccc(C(=O)Nc2cc([N+](=O)[O-])ccc2F)c1 the activity change, negative = inhibition was inconclusive: -44.1%.
For COc1ccc(C(c2nnnn2-c2c(C)cccc2C)N2CCC(n3c(=O)[nH]c4ccccc43)CC2)cc1 (centres undefined), the activity change, negative = inhibition was active: -69%.
For COCCN(CCOC)C(=O)CN1C(=O)NC2(CCCc3sccc32)C1=O (centres undefined), the activity change, negative = inhibition was inconclusive: -45.6%.
In the case of Cc1cc(NC(=O)NC(=O)c2ccccc2NC(=O)C(C)N)ccc1Oc1ncc(Br)cn1 (centres undefined), the activity change, negative = inhibition is reported as active: -82.8%.
For CCOc1ccc(-c2cccc(NS(=O)(=O)c3cc([N+](=O)[O-])ccc3Cl)c2)nn1, the activity change, negative = inhibition was inconclusive: -44.7%.
In the case of O=C(Oc1c(CN2CCOCC2)cc(Cl)c2cccnc12)c1ccccc1Br, the activity change, negative = inhibition is reported as active: -67.2%.
In the case of O=C(CCCN1C(=O)/C(=C/c2ccccc2)SC1=S)Nc1ccccc1O, the activity change, negative = inhibition is reported as active: -99.9%.
For CCc1ccc(CNC(=O)CC2C(=O)NCCN2Cc2ccccc2F)nc1 (centres undefined), the activity change, negative = inhibition was inconclusive: -40.1%.
With CC1(C(=O)NC2CCN(Cc3ccccc3)CC2)CCN1Cc1cc2ccccc2o1 (centres undefined) the activity change, negative = inhibition was inconclusive: -43%.
With CCn1c(SCC(=O)c2c[nH]c3ccccc23)nc2cc(S(=O)(=O)N3CCOCC3)ccc21 the activity change, negative = inhibition was inconclusive: -45.2%.
In the case of COc1ccc(C2Nc3ccc4ccccc4c3-c3c2c(=O)oc2ccccc32)cc1 (centres undefined), the activity change, negative = inhibition is reported as inconclusive: -43.7%.
In the case of Cc1ccc(NC(=O)CN2C(=O)S/C(=C\c3cccn3-c3cccc(C(=O)O)c3)C2=O)cc1C, the activity change, negative = inhibition is reported as inconclusive: -43.7%.
For COCCCn1[nH]c2c3c(ccc2c1=O)C(=O)c1ccccc1C3=O, the activity change, negative = inhibition was inconclusive: -43.7%.
With O=c1[nH]cccc1-c1nc2cc(Cl)ccc2n1Cc1ccccc1 the activity change, negative = inhibition was inconclusive: -40.9%.
In the case of CC(C)=CC1C(C(=O)Nc2ccc(S(=O)(=O)N3CCOCC3)cc2)C1(C)C (centres undefined), the activity change, negative = inhibition is reported as inconclusive: -46.7%.
For COc1cnc(-c2ccccn2)nc1Sc1ccccc1Cl, the activity change, negative = inhibition was active: -98.4%.
In the case of CC(NC(=O)CCl)c1ccccc1Br (centres undefined), the activity change, negative = inhibition is reported as inconclusive: -43.4%.
With CN(C)c1cccc(C(=O)N(C)C2CCCN(Cc3ccccc3F)C2)c1 (centres undefined) the activity change, negative = inhibition was active: -70.9%.
In the case of COc1ccc(NC(=O)CCN2CCN(S(=O)(=O)c3ccc(Br)cc3)CC2)cc1, the activity change, negative = inhibition is reported as inconclusive: -47.4%.
With Cc1ccc2c(c1)C(c1ccc([N+](=O)[O-])cc1)=NNC(c1ccc(Br)cc1)=N2 the activity change, negative = inhibition was inactive: -16.8%.
In the case of COc1ccc(N2CCN(C(=O)c3ccc4c(c3)N(Cc3cccc(Cl)c3)C(=O)c3ccccc3S4(=O)=O)CC2)cc1, the activity change, negative = inhibition is reported as inactive: -38.2%.
With O=C1c2cccc3cccc(c23)C(=O)N1CCO the activity change, negative = inhibition was inconclusive: -53.3%.
For Cc1ccc(NC(=O)c2ccn(C)n2)c(Br)c1, the activity change, negative = inhibition was inactive: 92.6%.
With CN(C)S(=O)(=O)NC(=O)C1=C(N2CCCC2)COC1=O the activity change, negative = inhibition was inconclusive: -45.5%.
With COc1ccc(CNC(=O)CCc2ccc(S(=O)(=O)N3CCCCCC3)cc2)cc1 the activity change, negative = inhibition was inactive: 0%.
With c1ccc(CNc2c3c(nc4ccccc24)CCC3)cc1 the activity change, negative = inhibition was inconclusive: -57.1%.
For C[n+]1ccn(CC(=O)c2ccc(Br)cc2)c1, the activity change, negative = inhibition was inconclusive: -52.7%.
With O=C(c1cc2nc(-c3cccs3)cc(C(F)(F)F)n2n1)N1CCCc2ccccc21 the activity change, negative = inhibition was inconclusive: -42.7%.
With Cc1ccc(C(C)(C)C)cc1S(=O)(=O)Nc1cccc(S(=O)(=O)NC2=NCCC2)c1 the activity change, negative = inhibition was inconclusive: -42.4%.
In the case of COc1ccc(/C=N/NC(=O)c2ccccc2Cl)cc1CSc1nc2ccccc2s1, the activity change, negative = inhibition is reported as inconclusive: -40.4%.
In the case of NC(=O)c1ccc(Nc2nnc(-c3ccc(O)cc3)c3ccccc23)cc1, the activity change, negative = inhibition is reported as inconclusive: -40.2%.
For O=C(c1ccco1)N(Cc1ccccc1)c1cccc([N+](=O)[O-])c1, the activity change, negative = inhibition was inconclusive: -54.8%.
For CCN(CC)c1ccc(/C=N/NC(=O)c2cccc(S(=O)(=O)N3CCOCC3)c2)c(O)c1, the activity change, negative = inhibition was active: -75%.
